Results from paper PMC9122892.
Results are given in words; binding and its absence hold for the method and conditions named. In cells and extracts the contact can be indirect. Some results given as binding are weak or reduced against the parent protein; the word gives no strength.

Molecular target: T1, Ifi204 (mouse (endogenous in mouse tissue)) (UniProt P0DOV2)
T1 sequence: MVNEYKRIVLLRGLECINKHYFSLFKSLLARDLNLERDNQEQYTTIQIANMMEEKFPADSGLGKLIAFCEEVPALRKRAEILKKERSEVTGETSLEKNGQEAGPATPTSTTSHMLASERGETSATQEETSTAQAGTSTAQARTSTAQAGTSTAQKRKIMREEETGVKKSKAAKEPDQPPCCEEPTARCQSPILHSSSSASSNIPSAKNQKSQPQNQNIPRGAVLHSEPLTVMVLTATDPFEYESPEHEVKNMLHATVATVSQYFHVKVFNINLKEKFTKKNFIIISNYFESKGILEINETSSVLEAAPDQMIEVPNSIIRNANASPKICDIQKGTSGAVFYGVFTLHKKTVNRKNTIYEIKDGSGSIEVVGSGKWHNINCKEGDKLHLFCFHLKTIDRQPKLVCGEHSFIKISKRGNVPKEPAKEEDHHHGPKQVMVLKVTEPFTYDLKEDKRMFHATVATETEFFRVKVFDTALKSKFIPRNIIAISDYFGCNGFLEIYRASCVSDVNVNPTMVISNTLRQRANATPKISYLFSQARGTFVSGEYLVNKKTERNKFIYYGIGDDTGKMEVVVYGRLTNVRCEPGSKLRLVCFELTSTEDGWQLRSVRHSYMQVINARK
Experiment: proximity ligation; PLA (Duolink) on deparaffinized allograft tumor tissue sections from HFD-fed mice; anti-Ifi204 with anti-HIF1α or anti-PRMT2

B1: PRMT2 (mouse) (protein, UniProt Q9R144 1-448)
chain: MEAPGEGPCSESQVIPVLEEDPVDYGCEMQLLQDGAQLQLQLQPEEFVAIADYTATDETQLSFLRGEKILILRQTTADWWWGERAGCCGYIPANHLGKQLEEYDPEDTWQDEEYFDSYGTLKLHLEMLADQPRTTKYHSVILQNKESLKDKVILDVGCGTGIISLFCAHHARPKAVYAVEASDMAQHTSQLVLQNGFADTITVFQQKVEDVVLPEKVDVLVSEWMGTCLLFEFMIESILYARDTWLKGDGIIWPTTAALHLVPCSAEKDYHSKVLFWDNAYEFNLSALKSLAIKEFFSRPKSNHILKPEDCLSEPCTILQLDMRTVQVPDLETMRGELRFDIQKAGTLHGFTAWFSVYFQSLEEGQPQQVVSTGPLHPTTHWKQTLFMMDDPVPVHTGDVVHGFCCVTKKSGMEKAHVCLSELGCHVRTRSHVSTELETGSFRSGGDS
B1 was tested, and the binding was “binds”.
